Data published in paper PMC8602864, “The Molecular Assembly State of Drp1 Controls its Association With the Mitochondrial Recruitment Receptors Mff and MIEF1/2” (Frontiers in Cell and Developmental Biology, 2021).
Results are given in words; binding and its absence hold for the method and conditions named. In cells and extracts the contact can be indirect. A result given as binding can be weak or reduced; the word gives no strength. Where a sequence is shown, tags or fusion partners need not be part of it.

Target: T1, MIEF2-V5 (UniProt Q96C03)
T1 sequence: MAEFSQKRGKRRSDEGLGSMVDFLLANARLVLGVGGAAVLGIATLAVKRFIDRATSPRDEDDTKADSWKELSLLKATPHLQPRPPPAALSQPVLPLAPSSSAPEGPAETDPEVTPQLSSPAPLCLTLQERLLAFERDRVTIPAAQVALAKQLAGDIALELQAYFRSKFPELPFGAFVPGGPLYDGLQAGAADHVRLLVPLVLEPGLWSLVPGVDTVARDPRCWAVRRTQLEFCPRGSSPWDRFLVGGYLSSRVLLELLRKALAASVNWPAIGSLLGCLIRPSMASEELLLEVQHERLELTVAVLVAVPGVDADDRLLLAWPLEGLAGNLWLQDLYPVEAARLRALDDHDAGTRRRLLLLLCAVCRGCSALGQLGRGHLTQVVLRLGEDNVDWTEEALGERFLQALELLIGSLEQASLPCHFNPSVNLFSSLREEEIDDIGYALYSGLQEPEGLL
Test: co-IP; Drp1-/- 293T cells co-transfected with Drp1-WT or a Drp1 mutant and MIEF1-V5, MIEF2-V5 or Myc-Mff; in vivo cross-linking with 1% formaldehyde for 10 min; lysis in 1% NP-40; anti-V5 or anti-Myc agarose beads 2 h at room temperature; Western blot

Drp1-K38A (human)
binding: binds
